Measurements as given in PMC4914304.
Results are given in words; binding and its absence hold for the method and conditions named. Binding seen in cells or lysates may run through a third protein. Some binding calls cover weakened binding; strength is not graded here. Tags and fused reporters may be left off the sequences shown.

Amino acid sequences for entries named in this document (tags omitted).
UniProt Q8NHY2: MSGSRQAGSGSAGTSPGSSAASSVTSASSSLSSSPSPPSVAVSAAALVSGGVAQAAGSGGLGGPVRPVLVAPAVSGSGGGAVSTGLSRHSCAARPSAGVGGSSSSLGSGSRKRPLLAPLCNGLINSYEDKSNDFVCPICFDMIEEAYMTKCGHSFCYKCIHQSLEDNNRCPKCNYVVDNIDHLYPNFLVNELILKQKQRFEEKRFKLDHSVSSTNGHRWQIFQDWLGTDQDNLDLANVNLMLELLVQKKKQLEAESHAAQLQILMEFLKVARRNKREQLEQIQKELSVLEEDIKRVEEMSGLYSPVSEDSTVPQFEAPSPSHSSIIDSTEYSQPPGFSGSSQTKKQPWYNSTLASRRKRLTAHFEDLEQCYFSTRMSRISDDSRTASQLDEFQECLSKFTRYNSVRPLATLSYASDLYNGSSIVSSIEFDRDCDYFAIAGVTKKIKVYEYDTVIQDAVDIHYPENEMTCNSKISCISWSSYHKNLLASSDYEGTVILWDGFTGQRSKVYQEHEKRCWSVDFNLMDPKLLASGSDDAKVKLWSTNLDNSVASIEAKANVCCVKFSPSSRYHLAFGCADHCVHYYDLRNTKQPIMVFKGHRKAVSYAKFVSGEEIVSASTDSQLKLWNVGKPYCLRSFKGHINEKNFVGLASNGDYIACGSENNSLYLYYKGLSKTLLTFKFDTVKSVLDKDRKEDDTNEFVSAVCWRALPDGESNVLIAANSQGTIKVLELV

B1: ETS2 S220A,S225A (protein, UniProt P15036 1-469)
chain: MNDFGIKNMDQVAPVANSYRGTLKRQPAFDTFDGSLFAVFPSLNEEQTLQEVPTGLDSISHDSANCELPLLTPCSKAVMSQALKATFSGFKKEQRRLGIPKNPWLWSEQQVCQWLLWATNEFSLVNVNLQRFGMNGQMLCNLGKERFLELAPDFVGDILWEHLEQMIKENQEKTEDQYEENSHLTSVPHWINSNTLGFGTEQAPYGMQTQNYPKGGLLDAMCPAATPSVLSSEQEFQMFPKSRLSSVSVTYCSVSQDFPGSNLNLLTNNSGTPKDHDSPENGADSFESSDSLLQSWNSQSSLLDVQRVPSFESFEDDCSQSLCLNKPTMSFKDYIQERSDPVEQGKPVIPAAVLAGFTGSGPIQLWQFLLELLSDKSCQSFISWTGDGWEFKLADPDEVARRWGKRKNKPKMNYEKLSRGLRYYYDKNIIHKTSGKRYVYRFVCDLQNLLGFTPEELHAILGVQPDTED
B2: Myc-ETS2 wild-type (protein, UniProt P15036 1-469)
chain: MNDFGIKNMDQVAPVANSYRGTLKRQPAFDTFDGSLFAVFPSLNEEQTLQEVPTGLDSISHDSANCELPLLTPCSKAVMSQALKATFSGFKKEQRRLGIPKNPWLWSEQQVCQWLLWATNEFSLVNVNLQRFGMNGQMLCNLGKERFLELAPDFVGDILWEHLEQMIKENQEKTEDQYEENSHLTSVPHWINSNTLGFGTEQAPYGMQTQNYPKGGLLDSMCPASTPSVLSSEQEFQMFPKSRLSSVSVTYCSVSQDFPGSNLNLLTNNSGTPKDHDSPENGADSFESSDSLLQSWNSQSSLLDVQRVPSFESFEDDCSQSLCLNKPTMSFKDYIQERSDPVEQGKPVIPAAVLAGFTGSGPIQLWQFLLELLSDKSCQSFISWTGDGWEFKLADPDEVARRWGKRKNKPKMNYEKLSRGLRYYYDKNIIHKTSGKRYVYRFVCDLQNLLGFTPEELHAILGVQPDTED
B3: ETS2 S220A,S225A,S248A (serine triple mutant) (protein, UniProt P15036 1-469)
chain: MNDFGIKNMDQVAPVANSYRGTLKRQPAFDTFDGSLFAVFPSLNEEQTLQEVPTGLDSISHDSANCELPLLTPCSKAVMSQALKATFSGFKKEQRRLGIPKNPWLWSEQQVCQWLLWATNEFSLVNVNLQRFGMNGQMLCNLGKERFLELAPDFVGDILWEHLEQMIKENQEKTEDQYEENSHLTSVPHWINSNTLGFGTEQAPYGMQTQNYPKGGLLDAMCPAATPSVLSSEQEFQMFPKSRLSSVAVTYCSVSQDFPGSNLNLLTNNSGTPKDHDSPENGADSFESSDSLLQSWNSQSSLLDVQRVPSFESFEDDCSQSLCLNKPTMSFKDYIQERSDPVEQGKPVIPAAVLAGFTGSGPIQLWQFLLELLSDKSCQSFISWTGDGWEFKLADPDEVARRWGKRKNKPKMNYEKLSRGLRYYYDKNIIHKTSGKRYVYRFVCDLQNLLGFTPEELHAILGVQPDTED
B4: ETS2 with serines 220, 225, 246, 248, 255 and 319 mutated to alanines (protein, UniProt P15036 1-469)
chain: MNDFGIKNMDQVAPVANSYRGTLKRQPAFDTFDGSLFAVFPSLNEEQTLQEVPTGLDSISHDSANCELPLLTPCSKAVMSQALKATFSGFKKEQRRLGIPKNPWLWSEQQVCQWLLWATNEFSLVNVNLQRFGMNGQMLCNLGKERFLELAPDFVGDILWEHLEQMIKENQEKTEDQYEENSHLTSVPHWINSNTLGFGTEQAPYGMQTQNYPKGGLLDAMCPAATPSVLSSEQEFQMFPKSRLSAVAVTYCSVAQDFPGSNLNLLTNNSGTPKDHDSPENGADSFESSDSLLQSWNSQSSLLDVQRVPSFESFEDDCAQSLCLNKPTMSFKDYIQERSDPVEQGKPVIPAAVLAGFTGSGPIQLWQFLLELLSDKSCQSFISWTGDGWEFKLADPDEVARRWGKRKNKPKMNYEKLSRGLRYYYDKNIIHKTSGKRYVYRFVCDLQNLLGFTPEELHAILGVQPDTED

target: Myc-COP1 (human) (UniProt Q8NHY2); test: co-IP; PC3 cells transfected 24 h with ETS2 (wild type or alanine mutants) and COP1; MG-132 for 6 h before harvest; IP with anti-COP1 antibodies; Western blot

binding, binds:
B1, B2, B3, B4
